Taken from: PubChem BioAssay AID1259254 (NCATS, 2017)
Aim: 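Finding genes that stop cells copying their DNA twice in one cycle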 (primary screen). Cell system: human HCT116 colorectal cancer cells. Reagent: single siRNA against human genes. Duration: 3 days. Read-out: 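Nuclei stained with Hoechst and imaged; cell-cycle phase assigned by DNA content; G2 share scaled per plate, non-targeting siRNA 0%, GMNN siRNA 100%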. Reading the numbers: G2 robust z-score and G2 cells, % of GMNN control: higher = more G2 cells, more excess DNA replication. Rule for the call: 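Active siRNAs have a G2 robust z of 5 or more median absolute deviations over the median, which in these data means about 38% or higher of GMNN control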.
The whole screen tested about 59,000 reagents; this is a random part of them. Of all reagents, about 1,550 (2.6%) were called active. 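G2 share is only a proxy for re-replication; each gene was hit by three separate siRNAs, and active genes were retested.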 Reagents against one gene are numbered here. Not all columns of the deposit are shown. No sequences are given here. The record does not give: the amount of reagent.

COX5A #1 → G2 robust z-score = -0.0778; G2 cells, % of GMNN control = 2.42; Call = inactive
COX5A #2 → G2 robust z-score = 5.63; G2 cells, % of GMNN control = 42.5; Call = active
COX5A #3 → G2 robust z-score = -0.513; G2 cells, % of GMNN control = -0.641; Call = inactive
DHX29 #1 → G2 robust z-score = -0.108; G2 cells, % of GMNN control = 2.21; Call = inactive
DHX29 #2 → G2 robust z-score = 1.18; G2 cells, % of GMNN control = 11.3; Call = inactive
DHX29 #3 → G2 robust z-score = 0.494; G2 cells, % of GMNN control = 6.44; Call = inactive
LRRC3C #1 → G2 robust z-score = 0.489; G2 cells, % of GMNN control = 6.41; Call = inactive
LRRC3C #2 → G2 robust z-score = 0.13; G2 cells, % of GMNN control = 3.88; Call = inactive
LRRC3C #3 → G2 robust z-score = -1.06; G2 cells, % of GMNN control = -4.47; Call = inactive

Next part; the last 3 above are carried over.
LRRC3C #1 → G2 robust z-score = 0.489; G2 cells, % of GMNN control = 6.41; Call = inactive
LRRC3C #2 → G2 robust z-score = 0.13; G2 cells, % of GMNN control = 3.88; Call = inactive
LRRC3C #3 → G2 robust z-score = -1.06; G2 cells, % of GMNN control = -4.47; Call = inactive
NHLRC2 #1 → G2 robust z-score = -0.721; G2 cells, % of GMNN control = -2.11; Call = inactive
NHLRC2 #2 → G2 robust z-score = -0.806; G2 cells, % of GMNN control = -2.7; Call = inactive
NHLRC2 #3 → G2 robust z-score = -0.798; G2 cells, % of GMNN control = -2.65; Call = inactive
ESRRB #1 → G2 robust z-score = -1.15; G2 cells, % of GMNN control = -5.14; Call = inactive
ESRRB #2 → G2 robust z-score = 3.72; G2 cells, % of GMNN control = 29.2; Call = inactive
ESRRB #3 → G2 robust z-score = 0.0796; G2 cells, % of GMNN control = 3.53; Call = inactive
RPS12P22 #1 → G2 robust z-score = 5.22; G2 cells, % of GMNN control = 39.7; Call = active
RPS12P22 #2 → G2 robust z-score = 2.36; G2 cells, % of GMNN control = 19.6; Call = inactive
RPS12P22 #3 → G2 robust z-score = 4.41; G2 cells, % of GMNN control = 34; Call = inactive
ATP5MG #1 → G2 robust z-score = 0.0371; G2 cells, % of GMNN control = 3.23; Call = inactive
ATP5MG #2 → G2 robust z-score = 4.81; G2 cells, % of GMNN control = 36.8; Call = inactive
ATP5MG #3 → G2 robust z-score = -0.417; G2 cells, % of GMNN control = 0.0362; Call = inactive
OR1F1 #1 → G2 robust z-score = 4.98; G2 cells, % of GMNN control = 38; Call = inactive
OR1F1 #2 → G2 robust z-score = -0.347; G2 cells, % of GMNN control = 0.523; Call = inactive
OR1F1 #3 → G2 robust z-score = -0.31; G2 cells, % of GMNN control = 0.785; Call = inactive
